# Data source: PubChem BioAssay AID1159578 (Peter MacCallum Cancer Centre, 2015)
# Purpose: 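Knock-downs that alter how fast lymphatic endothelial cells migrate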 (primary screen)
# Cells: human lymphatic endothelial cells
# Reagents: siRNA pool against human genes, 40 nM
# Time to read-out: 48 h after transfection
# Detection: 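High-content imaging of dye-stained cells in a scratch assay measures filled wound area and nuclei per well; duplicate means given as ratio to mock and robust z-score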
# Scale: migration robust z-score: higher = faster migration into the scratch; nuclei per well: higher = more cells in the well
# Active means: 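Pools averaging fewer than 3300 nuclei are never called; remaining pools count as changed when migration robust z lies outside -2 to 2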
# Meaning of the calls: active = migration changed; inactive = no migration change, or too few cells
# Shown is an unselected part of about 18,000 deposited reagents. Of all reagents, about 1,030 (5.7%) are marked active. 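Inactive calls also include pools with fewer than 3300 nuclei, whose migration was not assessed.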 The raw values are shown without normalisation. A number with no mark means an inactive call. The numbers tell different reagents against one gene apart. Not all columns of the deposit are shown. No sequences are given here.
gene knocked down,reagent no.,migration robust z-score,migration class with cell-count check,"nuclei per well, duplicate mean"
KLK7 (kallikrein related peptidase 7),1,0.13,migration z between -2 and 2; enough cells,5452
SPINK6 (serine peptidase inhibitor Kazal type 6),1,-0.72,migration z between -2 and 2; enough cells,5704
IL7R (interleukin 7 receptor),1,0.83,migration z between -2 and 2; enough cells,4799
FGA (fibrinogen alpha chain),1,-1.82,migration z between -2 and 2; enough cells,4622
BRINP3 (BMP/retinoic acid inducible neural specific 3),1,0.4,migration z between -2 and 2; enough cells,4975
LTBP4 (latent transforming growth factor beta binding protein 4),1,0.36,migration z between -2 and 2; enough cells,5451
ACBD7 (acyl-CoA binding domain containing 7),1,-0.5,migration z between -2 and 2; enough cells,5846
HDGFL3 (HDGF like 3),1,-0.15,migration z between -2 and 2; enough cells,4522
"SPTAN1 (spectrin alpha, non-erythrocytic 1)",1,-1.54,migration z between -2 and 2; enough cells,5540
LIN28A (lin-28 RNA binding posttranscriptional regulator A),1,0.01,migration z between -2 and 2; enough cells,6528
ZNF540 (zinc finger protein 540),1,-0.24,migration z between -2 and 2; enough cells,6386
POLR3A (RNA polymerase III subunit A),1,0.39,migration z between -2 and 2; enough cells,5268
KCNA4 (potassium voltage-gated channel subfamily A member 4),1,-0.08,migration z between -2 and 2; enough cells,5165
SELP (selectin P),1,-1.84,migration z between -2 and 2; enough cells,5996
HSD3B2,1,-1.55,migration z between -2 and 2; enough cells,5552
NSMCE4A (NSE4A component of SMC5/6 complex),1,0.24,migration z between -2 and 2; enough cells,6361
RGS5 (regulator of G protein signaling 5),1,0.14,migration z between -2 and 2; enough cells,4711
COMT (catechol-O-methyltransferase),1,-3.21,under 3300 nuclei; migration not judged,2420
VGF (VGF nerve growth factor inducible),1,-0.05,migration z between -2 and 2; enough cells,5121
NEUROD2 (neuronal differentiation 2),1,0.36,migration z between -2 and 2; enough cells,6325
"LSM8 (LSM8 homolog, U6 small nuclear RNA associated)",1,0.8,migration z between -2 and 2; enough cells,5800
LBHD1 (LBH domain containing 1),1,-1.38,migration z between -2 and 2; enough cells,5815
GKN1 (gastrokine 1),1,-1,migration z between -2 and 2; enough cells,3854
CCDC91 (coiled-coil domain containing 91),1,0.27,migration z between -2 and 2; enough cells,6690
DNAAF6 (dynein axonemal assembly factor 6),1,-0.2,migration z between -2 and 2; enough cells,6517
TLR8 (toll like receptor 8),1,1.17,migration z between -2 and 2; enough cells,5034
PIEZO2 (piezo type mechanosensitive ion channel component 2),1,-0.16,migration z between -2 and 2; enough cells,6472
CACNA1H (calcium voltage-gated channel subunit alpha1 H),1,-0.91,migration z between -2 and 2; enough cells,4452
SPINK5 (serine peptidase inhibitor Kazal type 5),1,-1.25,migration z between -2 and 2; enough cells,4370
FN3KRP (fructosamine 3 kinase related protein),1,-4.57,under 3300 nuclei; migration not judged,2086
LZTS1 (leucine zipper tumor suppressor 1),1,-0.83,migration z between -2 and 2; enough cells,4248
RNF122 (ring finger protein 122),1,-0.73,migration z between -2 and 2; enough cells,4592
FOXN1 (forkhead box N1),1,-0.34,migration z between -2 and 2; enough cells,6062
RMP24 (ribonuclease MRP subunit p24),1,-1.69,migration z between -2 and 2; enough cells,4442
TMEM245 (transmembrane protein 245),1,0.26,migration z between -2 and 2; enough cells,6541
"TUSC2 (tumor suppressor 2, mitochondrial calcium regulator)",1,0.64,migration z between -2 and 2; enough cells,5751
WFDC6 (WAP four-disulfide core domain 6),1,-0.48,migration z between -2 and 2; enough cells,5822
PLAC4 (placenta associated 4),1,0.79,migration z between -2 and 2; enough cells,4394
FGF7 (fibroblast growth factor 7),1,-0.68,migration z between -2 and 2; enough cells,6060
DTX4 (deltex E3 ubiquitin ligase 4),1,-0.26,migration z between -2 and 2; enough cells,5144
TMCO2 (transmembrane and coiled-coil domains 2),1,-0.65,migration z between -2 and 2; enough cells,4964
ZBTB43 (zinc finger and BTB domain containing 43),1,-0.81,migration z between -2 and 2; enough cells,5358
MTERF3 (mitochondrial transcription termination factor 3),1,3.16 (active),migration z above 2; enough cells,6409
EIF4A1 (eukaryotic translation initiation factor 4A1),1,-0.98,migration z between -2 and 2; enough cells,5922
MSRB2 (methionine sulfoxide reductase B2),1,1.45,migration z between -2 and 2; enough cells,5812
UBA2 (ubiquitin like modifier activating enzyme 2),1,-0.26,migration z between -2 and 2; enough cells,5838
CFAP95 (cilia and flagella associated protein 95),1,-3.71,under 3300 nuclei; migration not judged,1856
ARFGEF1 (ARF guanine nucleotide exchange factor 1),1,0.78,migration z between -2 and 2; enough cells,6180
SOWAHA (sosondowah ankyrin repeat domain family member A),1,-0.08,migration z between -2 and 2; enough cells,6694
ZNF444 (zinc finger protein 444),1,-0.46,migration z between -2 and 2; enough cells,5109
CD274 (CD274 molecule),1,2.48 (active),migration z above 2; enough cells,5686
RNASE3 (ribonuclease A family member 3),1,0.62,migration z between -2 and 2; enough cells,5146
FAM111A (FAM111 trypsin like peptidase A),1,-1.4,migration z between -2 and 2; enough cells,4849
ITGA7 (integrin subunit alpha 7),1,-0.8,migration z between -2 and 2; enough cells,5876
PLEKHG7 (pleckstrin homology and RhoGEF domain containing G7),1,2.8 (active),migration z above 2; enough cells,7274
PLEKHG7 (pleckstrin homology and RhoGEF domain containing G7),2,-0.46,migration z between -2 and 2; enough cells,5750
MAGEA9B (MAGE family member A9B),1,-0.18,migration z between -2 and 2; enough cells,5684
"NRDE2 (NRDE-2, necessary for RNA interference, domain containing)",1,-0.44,migration z between -2 and 2; enough cells,5550
AKR1A1 (aldo-keto reductase family 1 member A1),1,0.91,migration z between -2 and 2; enough cells,6954
"SMO (smoothened, frizzled class receptor)",1,0.42,migration z between -2 and 2; enough cells,5730
LCE5A (late cornified envelope 5A),1,0.52,migration z between -2 and 2; enough cells,5369
COLEC10 (collectin subfamily member 10),1,-0.52,migration z between -2 and 2; enough cells,6366
KPNA2 (karyopherin subunit alpha 2),1,0.13,migration z between -2 and 2; enough cells,6350
MYH7 (myosin heavy chain 7),1,-0.65,migration z between -2 and 2; enough cells,6718
CYB5R5 (cytochrome b5 reductase 5 (putative)),1,-1.44,migration z between -2 and 2; enough cells,4600
SUMO3 (small ubiquitin like modifier 3),1,-0.46,migration z between -2 and 2; enough cells,5130
GSTZ1 (glutathione S-transferase zeta 1),1,-0.7,migration z between -2 and 2; enough cells,4921
PLA2G4D (phospholipase A2 group IVD),1,-0.16,migration z between -2 and 2; enough cells,5014
ZNF217 (zinc finger protein 217),1,3 (active),migration z above 2; enough cells,6745
"RTRAF (RNA transcription, translation and transport factor)",1,-0.24,migration z between -2 and 2; enough cells,4804
NLRP14 (NLR family pyrin domain containing 14),1,-0.52,migration z between -2 and 2; enough cells,3510
RBM39 (RNA binding motif protein 39),1,-0.78,migration z between -2 and 2; enough cells,5654
KRT82 (keratin 82),1,-0.45,migration z between -2 and 2; enough cells,6268

Records listed so far whose gene name begins with P or p:
gene knocked down,reagent no.,migration robust z-score,migration class with cell-count check,"nuclei per well, duplicate mean"
POLR3A (RNA polymerase III subunit A),1,0.39,migration z between -2 and 2; enough cells,5268
PIEZO2 (piezo type mechanosensitive ion channel component 2),1,-0.16,migration z between -2 and 2; enough cells,6472
PLAC4 (placenta associated 4),1,0.79,migration z between -2 and 2; enough cells,4394
PLEKHG7 (pleckstrin homology and RhoGEF domain containing G7),1,2.8 (active),migration z above 2; enough cells,7274
PLEKHG7 (pleckstrin homology and RhoGEF domain containing G7),2,-0.46,migration z between -2 and 2; enough cells,5750
PLA2G4D (phospholipase A2 group IVD),1,-0.16,migration z between -2 and 2; enough cells,5014
